From patent US12729225B2, “Non-canonical SWI/SNF complex and uses thereof” (Dana-Farber Cancer Institute, Inc., priority 2018, dated 2026)

B1: RRP12 (protein, UniProt Q5JTH9 1-1297, looked up)
RRP12-like protein: MGRSGKLPSGVSAKLKRWKKGHSSDSNPAICRHRQAARSRFFSRPSGRSDLTVDAVKLHNELQSGSLRLGKSEAPETPMEEEAELVLTEKSSGTFLSGLSDCTNVTFSKVQRFWESNSAAHKEICAVLAAVTEVIRSQGGKETETEYFAALMTTMEAVESPESLAAVAYLLNLVLKRVPSPVLIKKFSDTSKAFMDIMSAQASSGSTSVLRWVLSCLATLLRKQDLEAWGYPVTLQVYHGLLSFTVHPKPKIRKAAQHGVCSVLKGSEFMFEKAPAHHPAAISTAKFCIQEIEKSGGSKEATTTLHMLTLLKDLLPCFPEGLVKSCSETLLRVMTLSHVLVTACAMQAFHSLFHARPGLSTLSAELNAQIITALYDYVPSENDLQPLLAWLKVMEKAHINLVRLQWDLGLGHLPRFFGTAVTCLLSPHSQVLTAATQSLKEILKECVAPHMADIGSVTSSASGPAQSVAKMFRAVEEGLTYKFHAAWSSVLQLLCVFFEACGRQAHPVMRKCLQSLCDLRLSPHFPHTAALDQAVGAAVTSMGPEVVLQAVPLEIDGSEETLDFPRSWLLPVIRDHVQETRLGFFTTYFLPLANTLKSKAMDLAQAGSTVESKIYDTLQWQMWTLLPGFCTRPTDVAISFKGLARTLGMAISERPDLRVTVCQALRTLITKGCQAEADRAEVSRFAKNFLPILFNLYGQPVAAGDTPAPRRAVLETIRTYLTITDTQLVNSLLEKASEKVLDPASSDFTRLSVLDLVVALAPCADEAAISKLYSTIRPYLESKAHGVQKKAYRVLEEVCASPQGPGALFVQSHLEDLKKTLLDSLRSTSSPAKRPRLKCLLHIVRKLSAEHKEFITALIPEVILCTKEVSVGARKNAFALLVEMGHAFLRFGSNQEEALQCYLVLIYPGLVGAVTMVSCSILALTHLLFEFKGLMGTSTVEQLLENVCLLLASRTRDVVKSALGFIKVAVTVMDVAHLAKHVQLVMEAIGKLSDDMRRHFRMKLRNLFTKFIRKFGFELVKRLLPEEYHRVLVNIRKAEARAKRHRALSQAAVEEEEEEEEEEEPAQGKGDSIEEILADSEDEEDNEEEERSRGKEQRKLARQRSRAWLKEGGGDEPLNFLDPKVAQRVLATQPGPGRGRKKDHGFKVSADGRLIIREEADGNKMEEEEGAKGEDEEMADPMEDVIIRNKKHQKLKHQKEAEEEELEIPPQYQAGGSGIHRPVAKKAMPGAEYKAKKAKGDVKKKGRPDPYAYIPLNRSKLNRRKKMKLQGQFKGLVKAARRGSQVGHKNRRKDRRP
B2: MOGS (protein, UniProt Q13724 1-837, looked up)
Mannosyl-oligosaccharide …: MARGERRRRAVPAEGVRTAERAARGGPGRRDGRGGGPRSTAGGVALAVVVLSLALGMSGRWVLAWYRARRAVTLHSAPPVLPADSSSPAVAPDLFWGTYRPHVYFGMKTRSPKPLLTGLMWAQQGTTPGTPKLRHTCEQGDGVGPYGWEFHDGLSFGRQHIQDGALRLTTEFVKRPGGQHGGDWSWRVTVEPQDSGTSALPLVSLFFYVVTDGKEVLLPEVGAKGQLKFISGHTSELGDFRFTLLPPTSPGDTAPKYGSYNVFWTSNPGLPLLTEMVKSRLNSWFQHRPPGAPPERYLGLPGSLKWEDRGPSGQGQGQFLIQQVTLKIPISIEFVFESGSAQAGGNQALPRLAGSLLTQALESHAEGFRERFEKTFQLKEKGLSSGEQVLGQAALSGLLGGIGYFYGQGLVLPDIGVEGSEQKVDPALFPPVPLFTAVPSRSFFPRGFLWDEGFHQLVVQRWDPSLTREALGHWLGLLNADGWIGREQILGDEARARVPPEFLVQRAVHANPPTLLLPVAHMLEVGDPDDLAFLRKALPRLHAWFSWLHQSQAGPLPLSYRWRGRDPALPTLLNPKTLPSGLDDYPRASHPSVTERHLDLRCWVALGARVLTRLAEHLGEAEVAAELGPLAASLEAAESLDELHWAPELGVFADFGNHTKAVQLKPRPPQGLVRVVGRPQPQLQYVDALGYVSLFPLLLRLLDPTSSRLGPLLDILADSRHLWSPFGLRSLAASSSFYGQRNSEHDPPYWRGAVWLNVNYLALGALHHYGHLEGPHQARAAKLHGELRANVVGNVWRQYQATGFLWEQYSDRDGRGMGCRPFHGWTSLVLLAMAEDY
B3: HNRNPA1L2 (protein)
chain: MSKSASPKEPEQLRKLFIGGLSFETTDESLRSHFEQWGTLTDCVVMRDPNTKRSRGFGFVTYATVEEVDAAMNTTPHKVDGRVVEPKRAVSREDSQRPGAHLTVKKIFVGGIKEDTEEHHLRDYFEQYGKIEVIEIMTDRGSGKKRGFAFVTFDDHDSVDKIVIQKYHTVKGHNCEVRKALPKQEMASASSSQRGRRGSGNFGGGRGDGFGGNDNFGRGGNFSGRGGFGGSCGGGGYGGSGDGYNGFGNDGSNFGGGGSYNDFGNYNNQSSNFGPMKGGNFGGRSSGPYGGGGQYFAKPQNQGGYGVSSSSSSYGSGRRF
B4: GANAB (protein, UniProt Q14697 29-944, looked up)
Neutral alpha-glucosidase AB: ITLAVDRSNFKTCEESSFCKRQRSIRPGLSPYRALLDSLQLGPDSLTVHLIHEVTKVLLVLELQGLQKNMTRFRIDELEPRRPRYRVPDVLVADPPIARLSVSGRDENSVELTMAEGPYKIILTARPFRLDLLEDRSLLLSVNARGLLEFEHQRAPRVSQGSKDPAEGDGAQPEETPRDGDKPEETQGKAEKDEPGAWEETFKTHSDSKPYGPMSVGLDFSLPGMEHVYGIPEHADNLRLKVTEGGEPYRLYNLDVFQYELYNPMALYGSVPVLLAHNPHRDLGIFWLNAAETWVDISSNTAGKTLFGKMMDYLQGSGETPQTDVRWMSETGIIDVFLLLGPSISDVFRQYASLTGTQALPPLFSLGYHQSRWNYRDEADVLEVDQGFDDHNLPCDVIWLDIEHADGKRYFTWDPSRFPQPRTMLERLASKRRKLVAIVDPHIKVDSGYRVHEELRNLGLYVKTRDGSDYEGWCWPGSAGYPDFTNPTMRAWWANMFSYDNYEGSAPNLFVWNDMNEPSVFNGPEVTMLKDAQHYGGWEHRDVHNIYGLYVHMATADGLRQRSGGMERPFVLARAFFAGSQRFGAVWTGDNTAEWDHLKISIPMCLSLGLVGLSFCGADVGGFFKNPEPELLVRWYQMGAYQPFFRAHAHLDTGRREPWLLPSQHNDIIRDALGQRYSLLPFWYTLLYQAHREGIPVMRPLWVQYPQDVTTFNIDDQYLLGDALLVHPVSDSGAHGVQVYLPGQGEVWYDIQSYQKHHGPQTLYLPVTLSSIPVFQRGGTIVPRWMRVRRSSECMKDDPITLFVALSPQGTAQGELFLDDGHTFNYQTRQEFLLRRFSFSGNTLVSSSADPEGHFETPIWIERVVIIGAGKPAAVVLQTKGSPESRLSFQHDPETSVLVLRKPGINVASDWSIHLR
B5: IKZF2 (protein, UniProt Q9UKS7 1-526, looked up)
Zinc finger protein Helios: METEAIDGYITCDNELSPEREHSNMAIDLTSSTPNGQHASPSHMTSTNSVKLEMQSDEECDRKPLSREDEIRGHDEGSSLEEPLIESSEVADNRKVQELQGEGGIRLPNGKLKCDVCGMVCIGPNVLMVHKRSHTGERPFHCNQCGASFTQKGNLLRHIKLHSGEKPFKCPFCSYACRRRDALTGHLRTHSVGKPHKCNYCGRSYKQRSSLEEHKERCHNYLQNVSMEAAGQVMSHHVPPMEDCKEQEPIMDNNISLVPFERPAVIEKLTGNMGKRKSSTPQKFVGEKLMRFSYPDIHFDMNLTYEKEAELMQSHMMDQAINNAITYLGAEALHPLMQHPPSTIAEVAPVISSAYSQVYHPNRIERPISRETADSHENNMDGPISLIRPKSRPQEREASPSNSCLDSTDSESSHDDHQSYQGHPALNPKRKQSPAYMKEDVKALDTTKAPKGSLKDIYKVFNGEGEQIRAFKCEHCRVLFLDHVMYTIHMGCHGYRDPLECNICGYRSQDRYEFSSHIVRGEHTFH
B6: RCC1 (protein, UniProt P18754 2-421, looked up)
Regulator of chromosome …: SPKRIAKRRSPPADAIPKSKKVKVSHRSHSTEPGLVLTLGQGDVGQLGLGENVMERKKPALVSIPEDVVQAEAGGMHTVCLSKSGQVYSFGCNDEGALGRDTSVEGSEMVPGKVELQEKVVQVSAGDSHTAALTDDGRVFLWGSFRDNNGVIGLLEPMKKSMVPVQVQLDVPVVKVASGNDHLVMLTADGDLYTLGCGEQGQLGRVPELFANRGGRQGLERLLVPKCVMLKSRGSRGHVRFQDAFCGAYFTFAISHEGHVYGFGLSNYHQLGTPGTESCFIPQNLTSFKNSTKSWVGFSGGQHHTVCMDSEGKAYSLGRAEYGRLGLGEGAEEKSIPTLISRLPAVSSVACGASVGYAVTKDGRVFAWGMGTNYQLGTGQDEDAWSPVEMMGKQLENRVVLSVSSGGQHTVLLVKDKEQS
B7: SLC1A5 (protein, UniProt Q15758 1-541, looked up)
Neutral amino acid …: MVADPPRDSKGLAAAEPTANGGLALASIEDQGAAAGGYCGSRDQVRRCLRANLLVLLTVVAVVAGVALGLGVSGAGGALALGPERLSAFVFPGELLLRLLRMIILPLVVCSLIGGAASLDPGALGRLGAWALLFFLVTTLLASALGVGLALALQPGAASAAINASVGAAGSAENAPSKEVLDSFLDLARNIFPSNLVSAAFRSYSTTYEERNITGTRVKVPVGQEVEGMNILGLVVFAIVFGVALRKLGPEGELLIRFFNSFNEATMVLVSWIMWYAPVGIMFLVAGKIVEMEDVGLLFARLGKYILCCLLGHAIHGLLVLPLIYFLFTRKNPYRFLWGIVTPLATAFGTSSSSATLPLMMKCVEENNGVAKHISRFILPIGATVNMDGAALFQCVAAVFIAQLSQQSLDFVKIITILVTATASSVGAAGIPAGGVLTLAIILEAVNLPVDHISLILAVDWLVDRSCTVLNVEGDALGAGLLQNYVDRTESRSTEPELIQVKSELPLDPLPVPTEEGNPLLKHYRGPAGDATVASEKESVM
B8: U2AF2 (protein, UniProt P26368 2-475, looked up)
Splicing factor U2AF 65 kDa …: SDFDEFERQLNENKQERDKENRHRKRSHSRSRSRDRKRRSRSRDRRNRDQRSASRDRRRRSKPLTRGAKEEHGGLIRSPRHEKKKKVRKYWDVPPPGFEHITPMQYKAMQAAGQIPATALLPTMTPDGLAVTPTPVPVVGSQMTRQARRLYVGNIPFGITEEAMMDFFNAQMRLGGLTQAPGNPVLAVQINQDKNFAFLEFRSVDETTQAMAFDGIIFQGQSLKIRRPHDYQPLPGMSENPSVYVPGVVSTVVPDSAHKLFIGGLPNYLNDDQVKELLTSFGPLKAFNLVKDSATGLSKGYAFCEYVDINVTDQAIAGLNGMQLGDKKLLVQRASVGAKNATLVSPPSTINQTPVTLQVPGLMSSQVQMGGHPTEVLCLMNMVLPEELLDDEEYEEIVEDVRDECSKYGLVKSIEIPRPVDGVEVPGCGKIFVEFTSVFDCQKAMQGLTGRKFANRVVVTKYCDPDSYHRRDFW

Tested on: mSWI/SNF complexes
Test: mSWI/SNF complex purification with HA-tagged baits and mass spectrometry (peptide counts)
Design: species or system human
Settings: 293_HA-BRD7: HA-BRD7 bait purification; for Total: total peptide count per co-purified protein; for Unique: unique peptide count per co-purified protein

Molecule	Total	Unique
B1	5	5
B2	5	5
B3	5	5
B4	5	5
B5	5	5
B6	5	5
B7	5	5
B8	58	29
